Some results were stated once for a whole list of compounds, not compound by compound.
Tested on: colic distension in rat
Test: Colic distension in rat (colon irritated with 1% acetic acid, balloon distension, abdominal cramps counted)
Format: in vivo
Settings: oral route
Source text: This physiopathological mechanism inspired the creation of the model of distension of the colon first irritated with 1% acetic acid, in rat. […] IIS is characterized by the presence of abdominal pain. Patients having this pathology have a lowered threshold of digestive sensitivity.
The analgesic activity was studied on the model of digestive pain in observed rat. This pain is brought about by distension of the colon with a balloon.
Male Sprague-Dawley rats of about 180 g, fasted from the day before, are used. Under light fluothane anesthesia, an intrarectal probe is introduced 5 cm into the anus and 1.5 ml of 1% acetic acid is injected. An hour and 30 minutes after irritation, a latex balloon (empty diameter 2 mm, length 1 cm) mounted on a polyethylene catheter is introduced into the colon to the site of the irritation.
The product to be tested or the vehicle (distilled water) is administered per os in a volume of 1 ml, then the rat is observed on a Petri dish.
Distension of the colon is carried out 2 hours and 20 minutes after irritation. It is effected at a fixed volume of 1.5 ml of distilled water. The colic distension gives rise to digestive pain manifested by abdominal cramps whose number reflects the intensity of the pain. The colic distension is maintained for 10 minutes in the course of which the abdominal cramps are counted. […]

## Di-arginine Keto-glutarate [Example 3]
  Dose at/from which active in colic distension: ≥ 10 mg/kg

## Ornithine and Arginine Keto-glutarate [Example 4]
  Dose at/from which active in colic distension: ≥ 10 mg/kg

— patent US6429229B1, “Keto acid salts and amine derivatives, and their use for preparing medicines” (Chiesi S.A., priority 1998, dated 2002)
